Data taken from patent publication US4420639A, “Aromatic compounds” (Beecham Group Limited, priority 1973, dated 1983).

Experiments:
rat stomach = details: same dose level (300 mg/kg/day) orally, end of 11/2 days
[1] = tested on: stomach / gastro-intestinal tract; details: some subjects, doses not greatly in excess of the therapeutic dose; cited from earlier work

For `COc1ccc2cc(C(C)C(=O)O)ccc2c1` (centres unmarked) [compound of formula (I)], the gastric irritation (rat stomach) is given as “very severe gastric irritation” and the “irritation of the gastro-intestinal tract” value [1] is given as “can cause severe irritation of the gastro-intestinal tract in some subjects”.
